Results taken from PMC2860244.

Amino acid sequences for entries named in this document (tags omitted).
UniProt P20263: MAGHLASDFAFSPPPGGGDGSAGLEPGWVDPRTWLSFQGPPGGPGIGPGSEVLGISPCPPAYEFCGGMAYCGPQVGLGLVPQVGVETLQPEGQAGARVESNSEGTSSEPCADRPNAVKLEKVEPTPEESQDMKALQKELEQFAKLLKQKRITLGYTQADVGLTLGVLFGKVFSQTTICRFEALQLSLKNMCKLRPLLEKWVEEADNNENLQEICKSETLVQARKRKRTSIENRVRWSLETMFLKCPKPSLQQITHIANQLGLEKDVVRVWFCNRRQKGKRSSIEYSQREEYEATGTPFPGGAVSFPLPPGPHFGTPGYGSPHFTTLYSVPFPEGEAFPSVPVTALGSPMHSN

B1: prolyl 4-hydroxylase subunit alpha-1 (protein, UniProt Q60715-2 18-534)
chain: HPGFFTSIGQMTDLIHNEKDLVTSLKDYIKAEEDKLEQIKKWAEKLDRLTSTATKDPEGFVGHPVNAFKLMKRLNTEWSELENLILKDMSDGFISNLTIQRQYFPNDEDQVGAAKALFRLQDTYNLDTNTISKGNLPGVQHKSFLTAEDCFELGKVAYTEADYYHTELWMEQALTQLEEGELSTVDKVSVLDYLSYAVYQQGDLDKALLLTKKLLELDPEHQRANGNLVYFEYIMSKEKDANKSASGDQSDQKTAPKKKGIAVDYLPERQKYEMLCRGEGIKMTPRRQKRLFCRYHDGNRNPKFILAPAKQEDEWDKPRIIRFHDIISDAEIEIVKDLAKPRLSRATVHDPETGKLTTAQYRVSKSAWLSGYEDPVVSRINMRIQDLTGLDVSTAEELQVANYGVGGQYEPHFDFARKDEPDAFRELGTGNRIATWLFYMSDVSAGGATVFPEVGASVWPKKGTAVFWYNLFASGEGDYSTRHAACPVLVGNKWVSNKWLHERGQEFRRPCTLSELE
B2: DNA ligase 3 (protein, UniProt P97386 1-1015)
chain: MTLAFKILFPRNLCALGRKELCLFPEQNRWAAISQFSQWSETNLLGGCCLLQRRKPVLALQRGHLRPRATHLTFWPGSHVGLCTGPCAMAEQRFCVDYAKRGTAGCKKCKEKIVKGVCRIGKVVPNPFSESGGDMKEWYHIKCMFEKLERARATTKKIEDLTELEGWEELEDNEKEQISQHIADLSSKAAATPKKKAAVQAKLTTTGQVTSPVKGASFITSTNPRKFSGFSAAKPNNSEQAPSSPAPGTSLSASKCDPKHKDCLLREFRKLCAMVAENPSYNTKTQIIHDFLQKGSTGGFSDGFHGDVYLTVKLLLPGVIKSVYNLNDKQIVKLFSRIFNCNPDDMARDLEQGDVSETIRIFFEQSKSFPPAAKSLLTIQEVDAFLLHLSKLTKEDEQQQALQDIASRCTANDLKCIIRLIKHDLKMNSGAKHVLDALDPNAYEAFKASRNLQDVVERVLHNEQEVEKDPGRRRALRVQASLMTPVQPMLAEACKSIEYAMKKCPNGMFSEIKYDGERVQVHKKGDHFSYFSRSLKPVLPHKVAHFKDYIPKAFPGGQSMILDSEVLLIDNNTGKPLPFGTLGVHKKAAFQDANVCLFVFDCIYFNDVSLMDRPLCERRKFLHDNMVEIRNRIMFSEMKQVTKASDLADMINRVIREGLEGLVLKDVKGTYEPGKRHWLKVKKDYLNEGAMADTADLVVLGAFYGQGSKGGMMSIFLMGCYDPDSQKWCTVTKCAGGHDDATLARLQKELVMVKISKDPSKIPSWLKINKIYYPDFIVPDPKKAAVWEITGAEFSRSEAHTADGISIRFPRCTRIRDDKDWKSATNLPQLKELYQLSKDKADFAVVAGDEASPTTGGSSGENEGTAGSAGPCKGPPSKSSASAKTTEQKLNSPSSRGGIKPIPKHSPMKPGEKLAVKSSPVKVGMKRKATDETPCLKKVLLDVFTGVRLYLPPSTPDFKRLKRYFVAFDGDLVQEFDMGSATHVLGNREKNTDAQLVSSEWIWACIRKRRLIAPC
B3: lymphocyte-specific helicase (protein, UniProt Q60848 1-821)
chain: MAEQTEPAVITPAMLEEEEQLEAAGLEKERKMLEEAQKSWDRESTEIRYRRLQHLLEKSNIYSKFLLTKMEQQQLEEQKKKEKLEKKKRSLKLTEGKSLVDGNGEKPVMKKKRGREDESYNISEVMSKEEILSVAKKHKDNEDESSSTTSLCVEDIQKNKDSNSMIKDRLSQTVRQNSKFFFDPVRKCNGQPVPFQQPKHFTGGVMRWYQVEGMEWLRMLWENGINGILADEMGLGKTVQCIATIALMIQRGVPGPFLVCGPLSTLPNWMAEFKRFTPEIPTLLYHGTREDRRKLVKNIHKRQGTLQIHPVVVTSFEIAMRDQNALQHCYWKYLIVDEGHRIKNMKCRLIRELKRFNADNKLLLTGTPLQNNLSELWSLLNFLLPDVFDDLKSFESWFDITSLSETAEDIIAKEREQNVLHMLHQILTPFLLRRLKSDVALEVPPKREVVVYAPLCNKQEIFYTAIVNRTIANMFGSCEKETVELSPTGRPKRRSRKSINYSELDQFPSELEKLISQIQPEVNRERTVVEGNIPIESEVNLKLRNIMMLLRKCCNHPYMIEYPIDPVTQEFKIDEELVTNSGKFLILDRMLPELKKRGHKVLVFSQMTSMLDILMDYCHLRNFIFSRLDGSMSYSEREKNIYSFNTDPDVFLFLVSTRAGGLGINLTAADTVIIYDSDWNPQSDLQAQDRCHRIGQTKPVVVYRLVTANTIDQKIVERAAAKRKLEKLIIHKNHFKGGQSGLSQSKNFLDAKELMELLKSRDYEREVKGSREKVISDEDLELLLDRSDLIDQMKASRPIKGKTGIFKILENSEDSSAECLF
B4: heterogeneous nuclear ribonucleoprotein L (protein, UniProt Q8R081 1-586)
chain: MSRRLLPRAEKRRRRLEQRQQPDEQLRRAGAMVKMAAAGGGGGGGRYYGGGNEGGRAPKRLKTENAGDQHGGGGGGGSGAAGGGGGENYDDPHKTPASPVVHIRGLIDGVVEADLVEALQEFGPISYVVVMPKKRQALVEFEDVLGACNAVNYAADNQIYIAGHPAFVNYSTSQKISRPGDSDDSRSVNSVLLFTILNPIYSITTDVLYTICNPCGPVQRIVIFRKNGVQAMVEFDSVQSAQRAKASLNGADIYSGCCTLKIEYAKPTRLNVFKNDQDTWDYTNPNLSGQGDPGSNPNKRQRQPPLLGDHPAEYGGPHGGYHSHYHDEGYGPPPPHYEGRRMGPPVGGHRRGPSRYGPQYGHPPPPPPPPDYGPHADSPVLMVYGLDQSKMNCDRVFNVFCLYGNVEKVKFMKSKPGAAMVEMADGYAVDRAITHLNNNFMFGQKMNVCVSKQPAIMPGQSYGLEDGSCSYKDFSESRNNRFSTPEQAAKNRIQHPSNVLHFFNAPLEVTEENFFEICDELGVKRPTSVKVFSGKSERSSSGLLEWDSKSDALETLGFLNHYQMKNPNGPYPYTLKLCFSTAQHAS
B5: transcription intermediary factor 1-alpha (protein, UniProt Q64127-2 1-1017)
chain: MEVAVEKAAAAAAPAGGPAAAAPSGENEAESRQGPDSESGGEASRLNLLDTCAVCHQNIQSRVPKLLPCLHSFCQRCLPAPQRYLMLTAPALGSAETPPPAPAPAPAPGSPAGGPSPFATQVGVIRCPVCSQECAERHIIDNFFVKDTTEVPSSTVEKSNQVCTSCEDNAEANGFCVECVEWLCKTCIRAHQRVKFTKDHTVRQKEEVSPEAVGVTSQRPVFCPFHKKEQLKLYCETCDKLTCRDCQLLEHKEHRYQFIEEAFQNQKVIIDTLITKLMEKTKYIKYTGNQIQNRIIEINQNQKQVEQDIKVAIFTLMVEINKKGKALLHQLESLAKDHRMKLMQQQQEVAGLSKQLEHVMHFSKWAVSSGSSTALLYSKRLITYRLRHLLRARCDASPVTNTTIQFHCDPSFWAQNIINLGSLVIEDKESQPQMPKQNPVVEQSSQPPGGLPSNQLSKFPTQISLAQLRLQHIQQQHPPPRLINFQNHSPKPNGPVLPPYPQQLRYSPSQNVPRQTTIKPNPLQMAFLAQQAIKQWQISSVQAPPTTASSSSSTPSSPTITSAAGYDGKAFSSPMIDLSAPVGGSYNLPSLPDIDCSSTIMLDNIARKDTGVDHAQPRPPSNRTVQSPNSSVPSPGLAGPVTMTSVHPPIRSPSASSVGSRGSSGSSSKPAGADSTHKVPVVMLEPIRIKQENSGPPENYDFPVVIVKQESDEESRPQNTNYPRSILTSLLLNSSQSSASEETVLRSDAPDSTGDQPGLHQENSSNGKSEWSDASQKSPVHVGETRKEDDPNEDWCAVCQNGGELLCCEKCPKVFHLTCHVPTLTNFPSGEWICTFCRDLSKPEVDYDCDVPSHHSEKRKSEGLTKLTPIDKRKCERLLLFLYCHEMSLAFQDPVPLTVPDYYKIIKNPMDLSTIKKRLQEDYCMYTKPEDFVADFRLIFQNCAEFNEPDSEVANAGIKLESYFEELLKNLYPEKRFPKVEFRHEAEDCKFSDDSDDDFVQPRKKRLKSTEDRQLLK
B6: transcription termination factor 2 (protein, UniProt Q5NC05 1-1138)
chain: MDLVKCPEHGDACFLKTGVRDGPNKGKSFYVCRTNTCGFVQATDIPVSHCLLHEEFVVELQGLFLPQDKKEWRLFFRCARTKAEGKQWCGNVPWRQDPNPKELSVTSKPQQPSESQLHSPSQPRNPFRVLNKNQKTLERKQFVEEGERKTADKKLRENNEQLLDQRKEQKPKSNSRMEKDPSSDLVATRQSGGDREEQEKSKFQPKTKKAEGMASKQGHGEVLQGIPKGPHMSESESRGVPNKPETLREKETQLLVPSVPGQNPESKVQKEGHVSREPLKNGEAPSAQVTQRGLAQGPLQGPSKTWRPVPEAPAAPELCSGMAHHATSSSEDSEDDGVSSRPGSPLLFDSTVDSQKKGSLQHSDQSVQRQMPAASGVSKKGDSSDPAAQRANLTTQLKQKKGTLAAVNIQALPDKGEKLLKQIQALEDALSALALSPEQGTKEKCSAQEPEQSNITKAAAAPLHLVPPQPLPRPLIQPASSLGLKAGRQETPEGASQCSGGHMNQHHLYNVWKITSEAIDELHRSLKSCPGETAVAEDPAGLKVPLLLHQKQALAWLLWRESQKPQGGILADDMGLGKTLTMIALILTKKNQQKSKEKERSEPVTWLSKNDSSVFTSSGTLIVCPASLIHHWKNEVEKRVTSNRLRIYLYHGPNRSRHAKVLSTYDIVITTYSLLAKEIPTTKQEGEVPGANLSVEGTSAPLLQVVWARIILDEAHNVKNPRVQTSIAVCKLQAQARWAVTGTPIQNNLLDMYSLMKFLRCSPFDEFSLWKSQVDNGSMKGGERLSILTKSLLLRRTKDQLDSTGKPLVALPARRCQLHRLKLSEDERAVYDIFLARSRSALQSYLKRQEGRGSHHGRSPDNPFSRVAQEFGSSVSQGCPAADSQRPSTVHVLSQLLRLRQCCCHLSLLKSALDPTELESEGLVLSLEEQLSALTLSKVDVSEPSPTVSLNGTCFKAELFDDTRRSTKVSSLLAELEAIQKGPGSQKSVIVSQWTSMLQVVALHLKKNRLTYATIDGSVNPKQRMDLVEAFNHSQGPQVMLISLLAGGVGLNLTGGNHLFLLDMHWNPSLEDQACDRIYRVGQKKDVVIHRFVCEGTVEEKILQLQEKKKDLAKQVLSGSEGPVTKLTLADLKILFGI
B7: UDP-N-acetylglucosamine-peptide N-acetylglucosaminyltransferase 110 kDa subunit (protein, UniProt Q8CGY8 1-1046)
chain: MASSVGNVADSTEPTKRMLSFQGLAELAHREYQAGDFEAAERHCMQLWRQEPDNTGVLLLLSSIHFQCRRLDRSAHFSTLAIKQNPLLAEAYSNLGNVYKERGQLQEAIEHYRHALRLKPDFIDGYINLAAALVAAGDMEGAVQAYVSALQYNPDLYCVRSDLGNLLKALGRLEEAKACYLKAIETQPNFAVAWSNLGCVFNAQGEIWLAIHHFEKAVTLDPNFLDAYINLGNVLKEARIFDRAVAAYLRALSLSPNHAVVHGNLACVYYEQGLIDLAIDTYRRAIELQPHFPDAYCNLANALKEKGSVAEAEDCYNTALRLCPTHADSLNNLANIKREQGNIEEAVRLYRKALEVFPEFAAAHSNLASVLQQQGKLQEALMHYKEAIRISPTFADAYSNMGNTLKEMQDVQGALQCYTRAIQINPAFADAHSNLASIHKDSGNIPEAIASYRTALKLKPDFPDAYCNLAHCLQIVCDWTDYDERMKKLVSIVAEQLEKNRLPSVHPHHSMLYPLSHGFRKAIAERHGNLCLDKINVLHKPPYEHPKDLKLSDGRLRVGYVSSDFGNHPTSHLMQSIPGMHNPDKFEVFCYALSPDDGTNFRVKVMAEANHFIDLSQIPCNGKAADRIHQDGIHILVNMNGYTKGARNELFALRPAPIQAMWLGYPGTSGALFMDYIITDQETSPAEVAEQYSEKLAYMPHTFFIGDHANMFPHLKKKAVIDFKSNGHIYDNRIVLNGIDLKAFLDSLPDVKIVKMKCPDGGDNPDSSNTALNMPVIPMNTIAEAVIEMINRGQIQITINGFSISNGLATTQINNKAATGEEVPRTIIVTTRSQYGLPEDAIVYCNFNQLYKIDPSTLQMWANILKRVPNSVLWLLRFPAVGEPNIQQYAQNMGLPQNRIIFSPVAPKEEHVRRGQLADVCLDTPLCNGHTTGMDVLWAGTPMVTMPGETLASRVAASQLTCLGCLELIAKSRQEYEDIAVKLGTDLEYLKKIRGKVWKQRISSPLFNTKQYTMELERLYLQMWEHYAAGNKPDHMIKPVEVTESA

molecular target: Oct4-FTAP fusion protein (mouse) (UniProt P20263); assay: affinity purification with mass spectrometry; one-step purification on anti-FLAG M2 Dynal beads from whole-cell extracts of Oct4-FTAP ESCs against unmodified control cells (AB2.2); 150 mM NaCl, 0.1% NP-40, 90 min, 4°C; elution with AcTEV protease; three independent purifications; LC-MS/MS

binding | Binder
binds | B1
binds | B2
binds | B3
binds | B4
binds | B5
binds | B6
binds | B7

No constants are given. Whether binding was seen depends on the method and setting. Binding seen in cells or lysates may run through a third protein. Here binding means that the protein was enriched with, or labelled near, the bait; the list need not be complete. Sequences can lack the tags named with a protein.
